# Test results as given in PubChem BioAssay AID248 (DTP/NCI, 2004).
# The list is a part of this screen's results and no random one: it is rich in T/C values a quarter to a half above the control, in often repeated tests (any T/C) and in doses without a T/C. Further doses and runs are listed elsewhere. T/C: endpoint of the treated group in % of that of the vehicle group. Some entries give survivors of the animals treated and no T/C: the source holds a T/C of zero for them, seemingly a mark for toxic or unscored doses. Some survivor counts are full or nearly so, which does not show that the dose was tolerated: the source hardly ever lists a survival T/C far under the control, and the zero likely stands for such cases as well. Survivors were counted at the toxicity check, usually on the fifth day, unless a day is given; later deaths do not show. Schedules are NCI's codes, taken here to give the interval after Q, in days (D) or hours (H), and the number of doses after X. Some doses were run more than once; the values are given in rising order. Some structures stand for samples that the source files as different forms (salt, stereo form or complex); doses refer to the form tested. Signs of the kind (2×) count equal records among those shown. For survival time, this PubChem deposit counts one and a half times the control or more as active, and values a quarter to a half above the control carry no call in these data; other NCI protocols may use other cut-offs.
# Tested on: L1210 leukemia ip in BDF1 mice, survival T/C
# Test: NCI In Vivo Anticancer Drug Screen. Data for tumor model L1210 Leukemia (intraperitoneal) in B6D2F1 (BDF1) mice
# Details: T/C endpoint: mean survival time, higher T/C = longer survival
# [1] = dose: 100.0 mg/kg/injection, schedule: Q01DX009 (ip), vehicle: saline with Tween-80
# [2] = dose: 200.0 mg/kg/injection, schedule: Q01DX005 (ip), vehicle: saline
# [3] = dose: 400.0 mg/kg/injection, schedule: Q01DX005 (ip), vehicle: saline
# [4] = dose: 200.0 mg/kg/injection, schedule: Q04DX003 (ip), vehicle: saline with Tween-80
# [5] = dose: 400.0 mg/kg/injection, schedule: Q04DX003 (ip), vehicle: saline with Tween-80
# [6] = dose: 400.0 mg/kg/injection, schedule: Q04DX002 (ip), vehicle: Klucel (hydroxypropylcellulose) (HPC)
# [7] = dose: 75.0 mg/kg/injection, schedule: Q01DX001 (ip), vehicle: saline
# [8] = dose: 150.0 mg/kg/injection, schedule: Q01DX001 (ip), vehicle: saline
# [9] = dose: 300.0 mg/kg/injection, schedule: Q01DX001 (ip), vehicle: saline
# [10] = dose: 300.0 mg/kg/injection, schedule: Q01DX001 (ip), vehicle: carboxymethylcellulose (CMC)
# [11] = dose: 100.0 mg/kg/injection, schedule: Q01DX009 (ip), vehicle: saline
# [12] = dose: 200.0 mg/kg/injection, schedule: Q01DX009 (ip), vehicle: saline
# [13] = dose: 300.0 mg/kg/injection, schedule: Q01DX001 (ip), vehicle: other
# [14] = dose: 400.0 mg/kg/injection, schedule: Q01DX001 (ip), vehicle: saline
# [15] = dose: 400.0 mg/kg/injection, schedule: Q01DX001 (ip), vehicle: carboxymethylcellulose (CMC)
# [16] = dose: 50.0 mg/kg/injection, schedule: Q04DX003 (ip), vehicle: Klucel (hydroxypropylcellulose) (HPC)
structure (smiles),measurement,setting,value
O=C(C=C(C(F)(F)F)C(F)(F)F)c1ccc(C(=O)C=C(C(F)(F)F)C(F)(F)F)cc1,survivor count,[1],4 of 6
same,survivor count,"dose: 200.0 mg/kg/injection, schedule: Q01DX009 (ip), vehicle: saline with Tween-80",0 of 6
CC(=O)NCc1cccc([N+](=O)[O-])c1,T/C,"dose: 50.0 mg/kg/injection, schedule: Q01DX005 (ip), vehicle: saline",128 % of control
same,T/C,[2],125 % of control
same,survivor count,[3],1 of 4
CN(C)c1ncnc2nsnc12,survivor count,[4],0 of 6
same,survivor count,[5],0 of 6
CCN(CC)CCNCc1ccccc1,survivor count,"dose: 150.0 mg/kg/injection, schedule: Q04DX003 (ip), vehicle: saline",3 of 6
same,survivor count,"dose: 300.0 mg/kg/injection, schedule: Q04DX003 (ip), vehicle: saline",0 of 6
CN/N=C/c1ccc([N+](=O)[O-])o1,survivor count,[5],4 of 6
CCOC(C(=O)O)(c1ccccc1)c1ccccc1,survivor count,[6],1 of 3
COc1ccc(C)cc1NC(=S)NC(=O)C(C)Oc1ccccc1 (stereo not drawn),survivor count,"dose: 200.0 mg/kg/injection, schedule: Q01DX009 (ip), vehicle: Klucel (hydroxypropylcellulose) (HPC)",5 of 6
same,survivor count,"dose: 400.0 mg/kg/injection, schedule: Q01DX009 (ip), vehicle: Klucel (hydroxypropylcellulose) (HPC)",6 of 6
Cn1c(=O)c2[nH]c(C3CC=CCC3)nc2n(C)c1=O (stereo not drawn),survivor count,"dose: 200.0 mg/kg/injection, schedule: Q01DX001 (ip), vehicle: other",4 of 4
COC(=O)c1[nH]cnc1/N=N/N(C)C.[Cl][Cu][Cl],survivor count,"dose: 20.0 mg/kg/injection, schedule: Q01DX009 (ip), vehicle: saline",2 of 6
same,survivor count,"dose: 30.0 mg/kg/injection, schedule: Q01DX009 (ip), vehicle: saline",0 of 6
same,survivor count,[7],0 of 6
same,survivor count,[8],0 of 6
same,survivor count,[9],0 of 6
N#CCC1=Cc2ccccc2CC1,survivor count,"dose: 100.0 mg/kg/injection, schedule: Q01DX005 (ip), vehicle: saline",2 of 6
same,survivor count,[2],0 of 6
same,survivor count,[3],0 of 6
CN(C)C(C)(C)CCCNc1ccnc2cc(Cl)ccc12,survivor count,[10],0 of 6
C=C1CC[N+]2(C)CCCC12 (stereo not drawn),survivor count,[11],0 of 3
same,survivor count,[12],0 of 3
CC(=O)NC1=C(c2ccccc2)C(=O)c2ccccc21,T/C,"dose: 100.0 mg/kg/injection, schedule: Q01DX001 (ip), vehicle: Klucel (hydroxypropylcellulose) (HPC)",125 % of control
CCN(CC)CCSC(=O)C(O)(c1ccc(C)cc1)c1ccc(C)cc1,survivor count,[13],0 of 6
Cc1c2c(cc3c1OCN(C1CCCCC1)C3)CN(C1CCCCC1)CO2,survivor count,[14],3 of 6
C/C(CCCC(C)(C)C(=O)O)=N/Nc1ccc([N+](=O)[O-])cc1[N+](=O)[O-],survivor count,"dose: 150.0 mg/kg/injection, schedule: Q01DX001 (ip), vehicle: other",0 of 6
same,survivor count,[13],1 of 6
CN(C)c1ncnc2[nH]cc([N+](=O)[O-])c12,survivor count,[15],2 of 4
Cc1ccc(NC(=O)OCCN(C)C)cc1NC(=O)OCCN(C)C,survivor count,"dose: 25.0 mg/kg/injection, schedule: Q01DX009 (ip), vehicle: saline",6 of 6
same,survivor count,[11],3 of 6
same,survivor count,[12],0 of 6 (2×)
same,survivor count,"dose: 400.0 mg/kg/injection, schedule: Q01DX009 (ip), vehicle: saline",0 of 6 (2×)
O=C1C(Br)CS(=O)(=O)CC1Br (stereo not drawn),survivor count,"dose: 12.5 mg/kg/injection, schedule: Q04DX003 (ip), vehicle: saline",6 of 6
same,survivor count,"dose: 25.0 mg/kg/injection, schedule: Q04DX003 (ip), vehicle: saline",6 of 6
same,survivor count,"dose: 35.0 mg/kg/injection, schedule: Q01DX009 (ip), vehicle: saline",5 of 6
same,survivor count,[16],3 of 6
same,survivor count,"dose: 50.0 mg/kg/injection, schedule: Q04DX003 (ip), vehicle: saline",6 of 6
same,survivor count,"dose: 60.0 mg/kg/injection, schedule: Q01DX001 (ip), vehicle: carboxymethylcellulose (CMC)",2 of 6
same,survivor count,"dose: 75.0 mg/kg/injection, schedule: Q01DX001 (ip), vehicle: carboxymethylcellulose (CMC)",2 of 6
same,survivor count,"dose: 150.0 mg/kg/injection, schedule: Q01DX001 (ip), vehicle: carboxymethylcellulose (CMC)",0 of 6
same,survivor count,[10],0 of 6
NNC(=O)CNc1cc(Cl)cc(Cl)c1,survivor count,"dose: 100.0 mg/kg/injection, schedule: Q04DX002 (ip), vehicle: carboxymethylcellulose (CMC)",3 of 3
same,T/C,"dose: 200.0 mg/kg/injection, schedule: Q04DX002 (ip), vehicle: carboxymethylcellulose (CMC)",133 % of control
same,survivor count,[15],0 of 6
same,survivor count,"dose: 400.0 mg/kg/injection, schedule: Q01DX009 (ip), vehicle: carboxymethylcellulose (CMC)",6 of 6
same,survivor count,[6],0 of 3
same,survivor count,"dose: 400.0 mg/kg/injection, schedule: Q04DX002 (ip), vehicle: carboxymethylcellulose (CMC)",2 of 3 and 3 of 3
same,survivor count,"dose: 400.0 mg/kg/injection, schedule: Q04DX003 (ip), vehicle: carboxymethylcellulose (CMC)",1 of 6
CCCN1CCC(C(=O)CC)(c2cccc(O)c2)CC1,survivor count,[6],0 of 3
NC1CCC(CC23CC4CC(CC(C4)C2)C3)CC1 (stereo not drawn),survivor count,"dose: 200.0 mg/kg/injection, schedule: Q04DX003 (ip), vehicle: Klucel (hydroxypropylcellulose) (HPC)",3 of 6
same,survivor count,"dose: 400.0 mg/kg/injection, schedule: Q04DX003 (ip), vehicle: Klucel (hydroxypropylcellulose) (HPC)",0 of 6
CC(=O)C1=CC(=O)NC(=O)C1C(=O)CC(C)C (stereo not drawn),survivor count,"dose: 25.0 mg/kg/injection, schedule: Q01DX009 (ip), vehicle: Klucel (hydroxypropylcellulose) (HPC)",0 of 6
same,survivor count,[16],0 of 6
CSc1ccc(NC(=O)Oc2cc3ccccc3cc2C(=O)Nc2ccc(Cl)cc2)cc1,survivor count,"dose: 100.0 mg/kg/injection, schedule: Q04DX002 (ip), vehicle: saline with Tween-80",3 of 3
O=[N+]([O-])c1ccc(C(O)Nc2nccs2)o1 (stereo not drawn),survivor count,[1],3 of 6
Cc1cc([N+](=O)[O-])ccc1S(=O)(=O)F,survivor count,[4],3 of 3
same,survivor count,[5],2 of 3
CCCCCCN1CC1,survivor count,"dose: 60.0 mg/kg/injection, schedule: Q01DX001 (ip), vehicle: saline",1 of 6
same,survivor count,[7],1 of 6
same,survivor count,[8],0 of 6
same,survivor count,[9],0 of 6
Nc1ccc(N)cc1,survivor count,"dose: 25.0 mg/kg/injection, schedule: Q01DX009 (ip), vehicle: DMSO",5 of 6
same,survivor count,"dose: 50.0 mg/kg/injection, schedule: Q01DX009 (ip), vehicle: DMSO",5 of 6 (2×)
same,survivor count,"dose: 80.0 mg/kg/injection, schedule: Q01DX001 (ip), vehicle: saline",2 of 6
same,survivor count,"dose: 100.0 mg/kg/injection, schedule: Q01DX001 (ip), vehicle: saline",0 of 6
same,survivor count,"dose: 100.0 mg/kg/injection, schedule: Q01DX009 (ip), vehicle: DMSO",0 of 6
same,survivor count,"dose: 200.0 mg/kg/injection, schedule: Q01DX001 (ip), vehicle: saline",0 of 6
same,survivor count,"dose: 200.0 mg/kg/injection, schedule: Q01DX009 (ip), vehicle: DMSO",0 of 6
same,survivor count,[14],0 of 6
same,survivor count,"dose: 400.0 mg/kg/injection, schedule: Q04DX003 (ip), vehicle: DMSO",3 of 6
